Test results as given in patent publication EP0309566B1 (JOHNSON AND JOHNSON, priority 1987, dated 1994).
Plain letter strings leave the end groups untold.

Test: Boc solid-phase peptide synthesis; Boc-proline Merrifield resin
Conditions: whole synthesis, 214 nm, scale of the general procedure Boc-proline resin (1.8326 g)

Question: With IWGCSGKLICTTAVP as the sequence, how does the “final HPLC purity” value read?
Answer: Its value is 87%.
